According to PMC3438196:
These are yes or no findings as the source states them, for the method shown. Some results given as binding are weak or reduced against the parent protein; the word gives no strength.

Chains of the proteins cited; added tags and fusions are not shown. Lines headed by an entry give the natural chain unless they say otherwise; changes in a name come on top. Residues count along the entry.
UniProt P58753: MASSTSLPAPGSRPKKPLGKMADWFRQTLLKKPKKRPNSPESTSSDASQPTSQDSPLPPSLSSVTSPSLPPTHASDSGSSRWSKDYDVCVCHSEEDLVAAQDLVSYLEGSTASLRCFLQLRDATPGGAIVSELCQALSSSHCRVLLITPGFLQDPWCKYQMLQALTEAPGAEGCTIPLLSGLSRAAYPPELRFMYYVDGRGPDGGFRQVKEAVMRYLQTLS
UniProt Q9HC16: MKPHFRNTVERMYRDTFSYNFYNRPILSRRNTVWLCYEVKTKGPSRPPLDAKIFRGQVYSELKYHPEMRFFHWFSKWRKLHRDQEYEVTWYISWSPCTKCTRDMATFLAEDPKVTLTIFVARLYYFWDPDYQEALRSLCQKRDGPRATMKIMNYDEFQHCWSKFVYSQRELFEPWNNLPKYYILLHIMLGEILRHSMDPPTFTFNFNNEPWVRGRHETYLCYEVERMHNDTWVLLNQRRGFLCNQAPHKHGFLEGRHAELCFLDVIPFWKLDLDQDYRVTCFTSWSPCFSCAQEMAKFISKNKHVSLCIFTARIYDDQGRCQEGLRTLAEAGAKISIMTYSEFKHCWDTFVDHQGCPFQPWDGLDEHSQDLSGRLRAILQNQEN
UniProt O00206, residues 24-839: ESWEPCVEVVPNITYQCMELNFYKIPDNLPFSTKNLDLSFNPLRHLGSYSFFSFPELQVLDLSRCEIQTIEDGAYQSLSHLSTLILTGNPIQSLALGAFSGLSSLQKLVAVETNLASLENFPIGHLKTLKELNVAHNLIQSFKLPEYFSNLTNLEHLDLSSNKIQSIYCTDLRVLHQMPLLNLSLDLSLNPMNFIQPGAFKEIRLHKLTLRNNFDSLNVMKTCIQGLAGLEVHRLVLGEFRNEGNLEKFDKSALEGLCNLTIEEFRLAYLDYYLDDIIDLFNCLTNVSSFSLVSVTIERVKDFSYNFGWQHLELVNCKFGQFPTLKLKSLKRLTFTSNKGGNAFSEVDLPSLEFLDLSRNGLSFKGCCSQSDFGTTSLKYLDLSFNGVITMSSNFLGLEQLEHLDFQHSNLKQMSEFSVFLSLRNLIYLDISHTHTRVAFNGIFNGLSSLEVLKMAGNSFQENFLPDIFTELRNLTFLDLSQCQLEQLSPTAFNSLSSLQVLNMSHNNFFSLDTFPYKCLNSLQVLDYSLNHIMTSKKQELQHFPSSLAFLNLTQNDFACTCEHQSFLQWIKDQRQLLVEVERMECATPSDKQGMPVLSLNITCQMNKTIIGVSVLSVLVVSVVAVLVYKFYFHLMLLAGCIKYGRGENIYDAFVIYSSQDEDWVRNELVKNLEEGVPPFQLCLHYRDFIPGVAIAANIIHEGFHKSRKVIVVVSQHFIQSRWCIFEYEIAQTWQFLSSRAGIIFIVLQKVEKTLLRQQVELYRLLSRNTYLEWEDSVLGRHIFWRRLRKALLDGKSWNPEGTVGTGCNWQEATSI

What was measured:
[1] = target: Toll-like receptor 4 (TLR4) adapter protein TIRAP/Mal (UniProt P58753); test: two-hybrid; random mutagenesis MAPPIT, unpublished results named in the discussion
[2] = target: Apobec3G D128G random mutant bait (pCEL-Apobec3G-GFP) (human) (UniProt Q9HC16); test: two-hybrid; random mutagenesis MAPPIT: pCEL-Apobec3G-GFP baits (wild type, W127A, error prone PCR mutants), automated 384-well transfection of HEK293T cells, 1.5 ng bait and 6.5 ng prey plasmid per well, overnight 10 ng/ml hEpo; relative MAPPIT signal as % of the median of the six wild type baits on the plate
[3] = target: Apobec3G A51V/P129S random mutant bait (pCEL-Apobec3G-GFP) (human) (UniProt Q9HC16); test: as above
[4] = target: Apobec3G H248A MAPPIT bait (human) (UniProt Q9HC16); test: two-hybrid; MAPPIT (mammalian two-hybrid) in intact HEK293T cells: bait on the EpoR/leptin receptor chimera, prey on gp130 fragments, pXP2d2-rPAP1-luciferase reporter; fold induction of luciferase, Epo-stimulated (10 ng/ml hEpo) over unstimulated; 6-well or 96-well calcium phosphate transfection
[5] = target: Apobec3G C261A MAPPIT bait (human) (UniProt Q9HC16); test: as above
[6] = target: Apobec3G Q237K+R238C MAPPIT bait (human) (UniProt Q9HC16); test: as above

Measured: binding

Toll-like receptor 4 (TLR4) (from UniProt O00206 24-839)
binds: [1]

Apobec3G MAPPIT prey (pMG2-Apobec3G) (from UniProt Q9HC16 1-384)
binds: [2] | [3] | [4] | [5] | [6]
